Assay results taken from patent US4093617A, “3,5,7-Trisubstituted pyrazolo[1,5-a]pyrimidines” (ICN Pharmaceuticals, Inc., priority 1976, dated 1978).

Assay: Potentiation of the depressant effects of ethanol, loss of the righting reflex in the mouse
Conditions: in vivo, po
Experimental: For this test male Swiss-Webster mice weighing 18 to 20 grams were food deprived 18 hours prior to the experiment. […] Drugs were given orally in 20 ml/kg of 1% CMC. Ethanol (5 gm/kg p.o.) was given 30 minutes after drug injection. Immediately after treatment animals were placed in individual clear plastic containers.
The righting reflex was recorded as being present when the animal would voluntarily roll to its side when placed on its back. Animals were tested for righting reflex every 15 minutes.

For `CN1C(=O)CN=C(c2ccccc2)c2cc(Cl)ccc21` [Diazepam, diazepam, reference compound], the NOAEL was 1 mg/kg.
